This is an account of results in paper PMC5133869.

By UniProt entry, the sequences of proteins in these tests, tags left out.
UniProt Q9Y6D6: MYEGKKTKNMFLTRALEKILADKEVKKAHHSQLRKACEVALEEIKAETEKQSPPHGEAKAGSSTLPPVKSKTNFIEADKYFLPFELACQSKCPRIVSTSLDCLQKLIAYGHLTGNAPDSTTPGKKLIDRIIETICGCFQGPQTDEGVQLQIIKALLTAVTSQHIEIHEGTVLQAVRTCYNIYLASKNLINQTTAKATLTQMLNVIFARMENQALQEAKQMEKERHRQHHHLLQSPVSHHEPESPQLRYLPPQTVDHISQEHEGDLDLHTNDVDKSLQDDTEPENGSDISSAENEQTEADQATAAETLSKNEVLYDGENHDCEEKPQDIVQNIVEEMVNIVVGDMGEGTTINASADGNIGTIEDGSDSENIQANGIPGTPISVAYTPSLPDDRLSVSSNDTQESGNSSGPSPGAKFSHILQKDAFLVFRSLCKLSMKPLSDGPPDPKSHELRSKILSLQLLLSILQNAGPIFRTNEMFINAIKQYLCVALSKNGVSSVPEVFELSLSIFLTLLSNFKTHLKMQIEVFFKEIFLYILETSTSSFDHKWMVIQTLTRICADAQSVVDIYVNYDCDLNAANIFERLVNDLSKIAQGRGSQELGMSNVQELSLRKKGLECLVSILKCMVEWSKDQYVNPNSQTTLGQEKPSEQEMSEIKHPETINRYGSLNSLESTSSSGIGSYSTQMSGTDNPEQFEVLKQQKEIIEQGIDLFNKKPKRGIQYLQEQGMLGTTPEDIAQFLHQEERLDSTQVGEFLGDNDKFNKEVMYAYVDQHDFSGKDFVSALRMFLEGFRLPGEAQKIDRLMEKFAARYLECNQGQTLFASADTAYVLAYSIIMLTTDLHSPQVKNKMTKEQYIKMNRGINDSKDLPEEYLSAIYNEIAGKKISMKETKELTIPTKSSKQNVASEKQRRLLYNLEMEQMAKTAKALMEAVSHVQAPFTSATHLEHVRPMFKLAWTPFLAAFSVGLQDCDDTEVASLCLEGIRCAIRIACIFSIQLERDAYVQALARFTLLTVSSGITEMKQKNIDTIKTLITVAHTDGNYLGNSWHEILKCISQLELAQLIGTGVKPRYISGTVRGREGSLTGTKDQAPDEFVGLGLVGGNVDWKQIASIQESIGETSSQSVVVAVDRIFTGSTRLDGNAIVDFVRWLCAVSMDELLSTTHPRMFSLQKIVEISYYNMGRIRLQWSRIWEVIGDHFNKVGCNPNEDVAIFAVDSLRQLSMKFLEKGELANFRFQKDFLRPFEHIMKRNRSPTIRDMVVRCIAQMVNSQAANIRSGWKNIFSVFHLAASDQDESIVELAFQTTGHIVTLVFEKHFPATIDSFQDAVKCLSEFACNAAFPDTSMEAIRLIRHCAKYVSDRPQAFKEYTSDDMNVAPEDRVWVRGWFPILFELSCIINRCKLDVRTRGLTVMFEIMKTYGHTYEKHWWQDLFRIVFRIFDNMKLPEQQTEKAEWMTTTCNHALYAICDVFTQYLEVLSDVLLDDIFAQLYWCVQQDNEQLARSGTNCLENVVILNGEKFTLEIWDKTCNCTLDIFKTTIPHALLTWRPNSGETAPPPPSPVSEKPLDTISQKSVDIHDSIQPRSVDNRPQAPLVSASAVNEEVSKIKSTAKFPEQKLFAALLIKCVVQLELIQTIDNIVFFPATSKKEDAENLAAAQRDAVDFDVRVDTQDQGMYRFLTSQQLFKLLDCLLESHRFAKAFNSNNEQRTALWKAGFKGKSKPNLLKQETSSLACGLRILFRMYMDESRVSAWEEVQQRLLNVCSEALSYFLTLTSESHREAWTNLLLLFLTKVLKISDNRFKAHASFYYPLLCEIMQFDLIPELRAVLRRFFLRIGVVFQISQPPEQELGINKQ

No constants are given. Whether binding was seen depends on the method and setting. Binding seen in cells or lysates may run through a third protein.

The assay deals with T1, Tumor necrosis factor receptor-associated factor 2 (human (endogenous in HT1080)) (UniProt Q12933).
T1 sequence: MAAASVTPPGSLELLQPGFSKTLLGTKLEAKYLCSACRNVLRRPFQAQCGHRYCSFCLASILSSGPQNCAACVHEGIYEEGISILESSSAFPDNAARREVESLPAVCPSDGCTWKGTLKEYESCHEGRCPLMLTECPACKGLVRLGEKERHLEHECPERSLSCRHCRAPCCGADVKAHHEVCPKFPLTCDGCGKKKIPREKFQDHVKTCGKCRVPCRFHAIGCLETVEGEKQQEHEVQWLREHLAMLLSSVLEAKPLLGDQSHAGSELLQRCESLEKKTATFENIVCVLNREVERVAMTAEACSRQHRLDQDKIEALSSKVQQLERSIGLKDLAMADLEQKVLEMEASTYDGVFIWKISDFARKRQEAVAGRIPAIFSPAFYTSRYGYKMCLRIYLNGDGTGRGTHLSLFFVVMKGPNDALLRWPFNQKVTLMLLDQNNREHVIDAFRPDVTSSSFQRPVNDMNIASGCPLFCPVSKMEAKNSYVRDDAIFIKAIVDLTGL
The assay can be described thus: co-IP; endogenous proteins; HT1080 cell extracts immunoprecipitated with anti-TRAF2 antibody, then immunoblotting; cells treated with 50 ng/mL TNF-α for the indicated periods (Figure 5A) or, after control siRNA, with TNF-α and cycloheximide for 4 h (Figure 6C). In general terms: Immunoblotting shows a protein as a band on a membrane.

Consider “Brefeldin A-inhibited guanine nucleotide-exchange factor 1 (from UniProt Q9Y6D6 1-1849)”, for which the binding entry is “no binding”.
